Measured values as given in patent US10377811B2, “Peptides, combination of peptides as targets and for use in immunotherapy against gallbladder cancer and cholangiocarcinoma and other cancers” (Immatics biotechnologies GmbH, priority 2016, dated 2019).

Test system: other tumor types
Assay: Presentation or detection of the peptides on other tumor types (LC-MS of HLA ligands)
Parameters: species or system human
Details: for Other relevant organs/diseases: tumor types with over-presentation on more than 5% of samples, or presentation on more than 5% with tumor vs normal ratio larger than 3, Table 4A; for Additional Entities: tumor types with over-presentation on more than 5% of samples, or presentation on more than 5% with tumor vs normal ratio larger than three, Table 4B
Procedure: (§1) Table 4A: Peptides according to the present invention and their specific uses in other proliferative diseases, especially in other cancerous diseases. […] Over-presentation is defined as higher presentation on the tumor sample as compared to the normal sample with highest presentation. Normal tissues against which over-presentation was tested were: adipose tissue, adrenal gland, artery, bone marrow, brain, central nerve, colon, duodenum, esophagus, eye, gallbladder, heart, kidney, liver, lung, lymph node, mononuclear white blood cells, pancreas, parathyroid gland, peripheral nerve, peritoneum, pituitary, pleura, rectum, salivary gland, skeletal muscle, skin, small intestine, spleen, stomach, thyroid gland, trachea, ureter, urinary bladder, vein.
as §1, with “4B:” for “4A:”, “colon,” for “colon, duodenum,”, “node,” for “node, mononuclear”, “stomach, thymus,” for “stomach,”
FIGS. 1A to 1G show the over-presentation of various peptides in normal tissues (white bars) and gallbladder cancer and cholangiocarcinoma (black bars). FIG. 1A: Gene symbol: MON2, Peptide: AVMTDLPVI, (SEQ ID NO.: 16), Tissues from left to right: 6 adipose tissues, 8 adrenal glands, 24 blood cells, 17 blood vessels, 10 bone marrows, 15 brains, 8 breasts, 4 cartilages, 7 esophagi, 2 eyes, 16 hearts, 19 kidneys, 21 large intestines, 25 livers, 49 lungs, 8 lymph nodes, 13 nerves, 3 ovaries, 11 pancreases, 6 parathyroid glands, 1 peritoneum, 6 pituitary glands, 7 placentas, 1 pleura, 3 prostates, 7 salivary glands, 10 skeletal muscles, 12 skins, 6 small intestines, 12 spleens, 5 stomachs, 7 testes, 2 thymi, 2 thyroid glands, 14 tracheas, 7 ureters, 8 urinary bladders, 6 uteri, 3 gallbladders, 17 gallbladder cancer and cholangiocarcinoma samples. The peptide has additionally been detected on 5/18 acute myeloid leukemias, 7/48 benign prostatic hyperplasias, 8/18 breast cancers, 4/17 chronic lymphocytic leukemias, 1/29 colorectal cancers, 3/34 brain cancers, 4/21 liver cancers, 4/10 head and neck cancers, 4/18 melanomas, 12/20 non-Hodgkin lymphomas, 10/90 non-small cell lung cancers, 6/20 ovarian cancers, 2/18 esophageal cancers, 3/19 pancreatic cancers, 3/23 kidney cancers, 6/17 small cell lung cancers, 3/15 urinary bladder cancers, and 6/16 uterus cancers. FIG. 1B: Gene symbol: CDC25B, Peptide: ISAPLVKTL (SEQ ID NO.: 24), Tissues from left to right: 6 adipose tissues, 8 adrenal glands, 24 blood cells, 17 blood vessels, 10 bone marrows, 15 brains, 8 breasts, 4 cartilages, 7 esophagi, 2 eyes, 16 hearts, 19 kidneys, 21 large intestines, 25 livers, 49 lungs, 8 lymph nodes, 13 nerves, 3 ovaries, 11 pancreases, 6 parathyroid glands, 1 peritoneum, 6 pituitary glands, 7 placentas, 1 pleura, 3 prostates, 7 salivary glands, 10 skeletal muscles, 12 skins, 6 small intestines, 12 spleens, 5 stomachs, 7 testes, 2 thymi, 2 thyroid glands, 14 tracheas, 7 ureters, 8 urinary bladders, 6 uteri, 3 gallbladders, 17 gallbladder cancer and cholangiocarcinoma samples. The peptide has additionally been detected on 1/20 ovarian cancers. […]

“1 (YAAEIASAL; listed as Homo sapiens) [compound 1]” was tested. Which Other relevant organs/diseases did it give?
The Other relevant organs/diseases was “AML, Melanoma”.

What does the source list for “6 (LLLPLLPPLSPS; listed as Homo sapiens) [compound 6]”?
Other relevant organs/diseases: SCLC, PC; Additional Entities: Brain Cancer

“7 (LLLSDPDKVTI; listed as Homo sapiens) [compound 7]” was tested. Which Other relevant organs/diseases did it give?
The Other relevant organs/diseases was “HCC”.

With “16 (AVMTDLPVI; listed as Homo sapiens) [compound 16]” as the substance, how does the “peptide additionally detected on (samples/total)” value (acute myeloid leukemias) read?
Its value is 5/18.

What about the “peptide additionally detected on (samples/total)” value (benign prostatic hyperplasias) of the same substance?
Its value is 7/48.

And the “peptide additionally detected on (samples/total)” value (brain cancers)?
The value was 3/34.

And the “peptide additionally detected on (samples/total)” value (breast cancers)?
Its value is 8/18.

What about the “peptide additionally detected on (samples/total)” value (chronic lymphocytic leukemias) of the same substance?
The value was 4/17.

And the “peptide additionally detected on (samples/total)” value (colorectal cancers)?
Its value is 1/29.

And the “peptide additionally detected on (samples/total)” value (esophageal cancers)?
The value was 2/18.

And the “peptide additionally detected on (samples/total)” value (head and neck cancers)?
The value was 4/10.

And the “peptide additionally detected on (samples/total)” value (kidney cancers)?
Its value is 3/23.

What about the “peptide additionally detected on (samples/total)” value (liver cancers) of the same substance?
Its value is 4/21.

And the “peptide additionally detected on (samples/total)” value (melanomas)?
Its value is 4/18.

And the “peptide additionally detected on (samples/total)” value (non-Hodgkin lymphomas)?
Its value is 12/20.

And the “peptide additionally detected on (samples/total)” value (non-small cell lung cancers)?
The value was 10/90.

And the “peptide additionally detected on (samples/total)” value (ovarian cancers)?
Its value is 6/20.

And the “peptide additionally detected on (samples/total)” value (pancreatic cancers)?
The value was 3/19.

And the “peptide additionally detected on (samples/total)” value (small cell lung cancers)?
The value was 6/17.

What about the Other relevant organs/diseases of the same substance?
The Other relevant organs/diseases was “CLL, NHL, AML”.

What about the “peptide additionally detected on (samples/total)” value (urinary bladder cancers) of the same substance?
The value was 3/15.

What about the “peptide additionally detected on (samples/total)” value (uterus cancers) of the same substance?
Its value is 6/16.

What does the source list for “17 (VLYDNTQLQL; listed as Homo sapiens) [compound 17]”?
Other relevant organs/diseases: NHL, AML; Additional Entities: CLL, OC, Urinary bladder cancer

How did the Other relevant organs/diseases turn out when “18 (SLSPDLSQV; listed as Homo sapiens) [compound 18]” was run?
Its Other relevant organs/diseases is “HCC, NHL, AML”.

How did the Other relevant organs/diseases turn out when “20 (VLQDELPQL; listed as Homo sapiens) [compound 20]” was run?
Its Other relevant organs/diseases is “NSCLC, NHL, AML, HNSCC, OC”.

With “21 (IAFPTSISV; listed as Homo sapiens) [compound 21]” as the substance, how does the Other relevant organs/diseases read?
The Other relevant organs/diseases was “BRCA”.

What does the source list for “24 (ISAPLVKTL; listed as Homo sapiens) [compound 24]”?
peptide additionally detected on (samples/total) (ovarian cancers): 1/20; Additional Entities: CLL

How did the “peptide additionally detected on (samples/total)” value (liver cancers) turn out when “25 (NLSETASTMAL; listed as Homo sapiens) [compound 25]” was run?
The value was 1/21.

And the “peptide additionally detected on (samples/total)” value (non-Hodgkin lymphomas)?
Its value is 1/20.

What about the “peptide additionally detected on (samples/total)” value (non-small cell lung cancers) of the same substance?
Its value is 4/90.

And the “peptide additionally detected on (samples/total)” value (ovarian cancers)?
Its value is 1/20.

What about the “peptide additionally detected on (samples/total)” value (small cell lung cancers) of the same substance?
Its value is 1/17.

What about the Other relevant organs/diseases of the same substance?
The Other relevant organs/diseases was “SCLC, NHL, Urinary bladder cancer”.

What about the “peptide additionally detected on (samples/total)” value (urinary bladder cancers) of the same substance?
The value was 1/15.

How did the Other relevant organs/diseases turn out when “26 (TAQTLVRIL; listed as Homo sapiens) [compound 26]” was run?
Its Other relevant organs/diseases is “CLL, BRCA”.

“28 (YASGSSASL; listed as Homo sapiens) [compound 28]” was tested. Which Other relevant organs/diseases did it give?
Its Other relevant organs/diseases is “RCC, AML, Melanoma”.

Which Other relevant organs/diseases does the source give for “29 (FASEVSNVL; listed as Homo sapiens) [compound 29]” here?
Its Other relevant organs/diseases is “SCLC, RCC, CLL, AML, Melanoma”.

With “30 (FASGLIHRV; listed as Homo sapiens) [compound 30]” as the substance, how does the Other relevant organs/diseases read?
The Other relevant organs/diseases was “CLL, AML”.

With “31 (IAIPFLIKL; listed as Homo sapiens) [compound 31]” as the substance, how does the Other relevant organs/diseases read?
The Other relevant organs/diseases was “SCLC, NHL”.

And the “Additional Entities” value?
Its value is “HCC, BRCA”.

“32 (YVISQVFEI; listed as Homo sapiens) [compound 32]” was tested. Which Other relevant organs/diseases did it give?
Its Other relevant organs/diseases is “CLL, Melanoma”.

What about the “Additional Entities” value of the same substance?
Its value is “NSCLC”.
